PubChem BioAssay AID504791, Drosophila RNAi Screening Center – 2011
The deposit covers about 23,000 reagents; below is an unselected part of those with a known target gene and a result. Over the whole deposit, 199 (0.86%) got an active call. 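Plate-scaled ratios behind the calls are not deposited; printed light signals are raw; many rows marked increased or decreased are still called inactive.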 Names joined by + are all predicted targets of the reagent. Reagent sequences are not shown. Not given: the direction of the score.

Screen: 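Genes of the fly required for silencing by miRNA, siRNA or endo-siRNA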 (primary screen)
System: Drosophila S2-derived reporter cells
Reagent: long dsRNA against Drosophila genes, about 150-250 ng dsRNA per well (siRNA assay); about 80-120 ng (miRNA assay)
Time to read-out: about 5 days (siRNA assay); about 4 days (miRNA assay)
Treatment: copper sulfate induction of reporters: 25 µM (siRNA assay); 200 mM stated (miRNA assay), 1-2 days before reading
Measured: 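Per-well ratio of Renilla over firefly light, expressed relative to that plate's average ratio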
Hit rule: 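a well was a first-pass pick when its plate-scaled ratio rose above 1.5 (siRNA assay) or 1.6 (miRNA assay), or dropped below 0.6; a gene counted only if two separate dsRNAs agreed on retest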

BCAS2 [DRSC15693] | stable assay Renilla, run 1 (luminescence): 10181; stable assay firefly, run 1 (luminescence): 3.92e5; call: inactive
Cad88C (Cadherin 88C) [DRSC15486] | stable assay Renilla, run 1 (luminescence): 8115; stable assay firefly, run 1 (luminescence): 5.09e5; call: inactive
CG3085 [DRSC04335] | stable assay Renilla, run 1 (luminescence): 17822; stable assay firefly, run 1 (luminescence): 4.05e5; call: inactive
CG14367 [DRSC14829] | stable assay Renilla, run 1 (luminescence): 7602; stable assay firefly, run 1 (luminescence): 3.21e5; call: inactive
Orco (Odorant receptor co-receptor) [DRSC12358] | stable assay Renilla, run 1 (luminescence): 6764; stable assay firefly, run 1 (luminescence): 4.00e5; call: inactive
capu (cappuccino) [DRSC00208] | stable assay Renilla, run 1 (luminescence): 4383; stable assay firefly, run 1 (luminescence): 2.85e5; call: inactive
capu (cappuccino) [DRSC00209] | stable assay Renilla, run 1 (luminescence): 4320; stable assay firefly, run 1 (luminescence): 2.61e5; call: inactive
capu (cappuccino) [DRSC00434] | stable assay Renilla, run 1 (luminescence): 7767; stable assay firefly, run 1 (luminescence): 4.47e5; call: inactive
capu (cappuccino) [DRSC00807] | stable assay Renilla, run 1 (luminescence): 21705; stable assay firefly, run 1 (luminescence): 7.74e5; call: inactive
CG14384 [DRSC14842] | stable assay Renilla, run 1 (luminescence): 6614; stable assay firefly, run 1 (luminescence): 4.39e5; call: inactive
CG8492 [DRSC10984] | stable assay Renilla, run 1 (luminescence): 4804; stable assay firefly, run 1 (luminescence): 4.45e5; call: inactive
CG8492 [DRSC21804] | stable assay Renilla, run 1 (luminescence): 8895; stable assay firefly, run 1 (luminescence): 4.47e5; call: inactive
tum (tumbleweed) [DRSC07575] | stable assay Renilla, run 1 (luminescence): 5287; stable assay firefly, run 1 (luminescence): 2.60e5; call: inactive
Mal-B2 (Maltase B2) [DRSC02417] | stable assay Renilla, run 1 (luminescence): 3219; stable assay firefly, run 1 (luminescence): 3.85e5; call: inactive
eEF1beta (eukaryotic translation elongation factor 1 beta) [DRSC07419] | stable assay Renilla, run 1 (luminescence): 8050; stable assay firefly, run 1 (luminescence): 2.51e5; call: inactive
Cpr30F (Cuticular protein 30F) [DRSC02908] | stable assay Renilla, run 1 (luminescence): 7724; stable assay firefly, run 1 (luminescence): 6.21e5; call: inactive
Patsas [DRSC02975] | stable assay Renilla, run 1 (luminescence): 86189; stable assay firefly, run 1 (luminescence): 4.42e5; call: inactive
msb1l [DRSC03572] | stable assay Renilla, run 1 (luminescence): 10218; stable assay firefly, run 1 (luminescence): 1.79e6; call: inactive
ssx [DRSC18492] | stable assay Renilla, run 1 (luminescence): 5158; stable assay firefly, run 1 (luminescence): 4.01e5; call: inactive
Gr64f (Gustatory receptor 64f) [DRSC08447] | stable assay Renilla, run 1 (luminescence): 5399; stable assay firefly, run 1 (luminescence): 3.16e5; call: inactive
TfAP-2 (Transcription factor AP-2) [DRSC11601] | stable assay Renilla, run 1 (luminescence): 7735; stable assay firefly, run 1 (luminescence): 5.84e5; call: inactive
CG8249 [DRSC07125] | stable assay Renilla, run 1 (luminescence): 6091; stable assay firefly, run 1 (luminescence): 3.52e5; call: inactive
CG15615 [DRSC06568] | stable assay Renilla, run 1 (luminescence): 6810; stable assay firefly, run 1 (luminescence): 5.56e5; call: inactive
CG5493 + CG5327 [DRSC06938] | stable assay Renilla, run 1 (luminescence): 7058; stable assay firefly, run 1 (luminescence): 3.47e5; call: inactive
CG14000 [DRSC02332] | stable assay Renilla, run 1 (luminescence): 8650; stable assay firefly, run 1 (luminescence): 4.45e5; call: inactive
Ak1 (Adenylate kinase 1) [DRSC10248] | stable assay Renilla, run 1 (luminescence): 6099; stable assay firefly, run 1 (luminescence): 4.75e5; call: inactive
Nnf1b [DRSC22080] | stable assay Renilla, run 1 (luminescence): 8195; stable assay firefly, run 1 (luminescence): 4.54e5; call: inactive
CG8584 [DRSC07217] | stable assay Renilla, run 1 (luminescence): 6607; stable assay firefly, run 1 (luminescence): 3.26e5; call: inactive
